Data as given in PubChem BioAssay AID743121 (NCATS, 2013).
The whole screen tested about 26,000 reagents; this is a part drawn at random. 167 of them (0.63%) were called active. 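Calls are per gene from RSA p-values that are not deposited; an individual active-marked siRNA can sensitise only weakly.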 Reagents against one gene are numbered here. Further read-outs or replicates are left out here.

Assay: 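Genes whose silencing strengthens cell killing by camptothecin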 (primary screen)
System: MDA-MB-231 cells, a human breast cancer line
Reagent: single siRNA against human genes, 20 nM siRNA (0.8 pmol per well)
Time to read-out: 120 h (drug added 48 h after transfection, read 72 h later)
Challenge: camptothecin 20 nM (about EC30) for 72 h; vehicle 0.1% DMSO in parallel plates
Measurement: 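Cell viability by ATP luminescence (CellTiter-Glo) as % of non-targeting siRNA wells, and the log2 ratio of viability without drug over viability with camptothecin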
Scale: log2 vehicle/camptothecin viability: higher = stronger sensitisation to camptothecin
Hit rule: 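Each gene scored by redundant siRNA activity (RSA) over its individual siRNA ratios; a gene is called active at p < 0.001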

{"Target gene": "MSH3 (mutS homolog 3)", "reagent no.": 1, "log2 vehicle/camptothecin viability": -0.349, "Call": "inactive"}
{"Target gene": "MSH3 (mutS homolog 3)", "reagent no.": 2, "log2 vehicle/camptothecin viability": 0.391, "Call": "inactive"}
{"Target gene": "MSH3 (mutS homolog 3)", "reagent no.": 3, "log2 vehicle/camptothecin viability": 0.131, "Call": "inactive"}
{"Target gene": "UHRF1 (ubiquitin like with PHD and ring finger domains 1)", "reagent no.": 1, "log2 vehicle/camptothecin viability": -0.278, "Call": "inactive"}
{"Target gene": "UHRF1 (ubiquitin like with PHD and ring finger domains 1)", "reagent no.": 2, "log2 vehicle/camptothecin viability": -0.103, "Call": "inactive"}
{"Target gene": "UHRF1 (ubiquitin like with PHD and ring finger domains 1)", "reagent no.": 3, "log2 vehicle/camptothecin viability": -0.237, "Call": "inactive"}
{"Target gene": "UHRF1 (ubiquitin like with PHD and ring finger domains 1)", "reagent no.": 4, "log2 vehicle/camptothecin viability": 0.0439, "Call": "inactive"}
{"Target gene": "GKAP1 (G kinase anchoring protein 1)", "reagent no.": 1, "log2 vehicle/camptothecin viability": -0.178, "Call": "inactive"}
{"Target gene": "GKAP1 (G kinase anchoring protein 1)", "reagent no.": 2, "log2 vehicle/camptothecin viability": -0.0825, "Call": "inactive"}
{"Target gene": "GKAP1 (G kinase anchoring protein 1)", "reagent no.": 3, "log2 vehicle/camptothecin viability": 0.882, "Call": "inactive"}
{"Target gene": "GKAP1 (G kinase anchoring protein 1)", "reagent no.": 4, "log2 vehicle/camptothecin viability": 0.0173, "Call": "inactive"}
{"Target gene": "TAL1", "reagent no.": 1, "log2 vehicle/camptothecin viability": -0.0174, "Call": "inactive"}
{"Target gene": "TAL1", "reagent no.": 2, "log2 vehicle/camptothecin viability": -0.493, "Call": "inactive"}
{"Target gene": "TAL1", "reagent no.": 3, "log2 vehicle/camptothecin viability": -0.344, "Call": "inactive"}
{"Target gene": "TAL1", "reagent no.": 4, "log2 vehicle/camptothecin viability": -0.374, "Call": "inactive"}
{"Target gene": "HACD1 (3-hydroxyacyl-CoA dehydratase 1)", "reagent no.": 1, "log2 vehicle/camptothecin viability": -0.132, "Call": "inactive"}
{"Target gene": "HACD1 (3-hydroxyacyl-CoA dehydratase 1)", "reagent no.": 2, "log2 vehicle/camptothecin viability": -0.526, "Call": "inactive"}
{"Target gene": "HACD1 (3-hydroxyacyl-CoA dehydratase 1)", "reagent no.": 3, "log2 vehicle/camptothecin viability": 0.139, "Call": "inactive"}
{"Target gene": "HACD1 (3-hydroxyacyl-CoA dehydratase 1)", "reagent no.": 4, "log2 vehicle/camptothecin viability": -0.126, "Call": "inactive"}
{"Target gene": "ADAMTS5 (ADAM metallopeptidase with thrombospondin type 1 motif 5)", "reagent no.": 1, "log2 vehicle/camptothecin viability": -0.111, "Call": "inactive"}
{"Target gene": "ADAMTS5 (ADAM metallopeptidase with thrombospondin type 1 motif 5)", "reagent no.": 2, "log2 vehicle/camptothecin viability": -0.201, "Call": "inactive"}
{"Target gene": "ADAMTS5 (ADAM metallopeptidase with thrombospondin type 1 motif 5)", "reagent no.": 3, "log2 vehicle/camptothecin viability": -0.145, "Call": "inactive"}
{"Target gene": "ADAMTS5 (ADAM metallopeptidase with thrombospondin type 1 motif 5)", "reagent no.": 4, "log2 vehicle/camptothecin viability": -0.266, "Call": "inactive"}

Laid out differently: 6 of the entries above.
{"Target gene":"MSH3 (mutS homolog 3)","reagent no.":3,"log2 vehicle/camptothecin viability":0.131,"Call":"inactive"}
{"Target gene":"UHRF1 (ubiquitin like with PHD and ring finger domains 1)","reagent no.":1,"log2 vehicle/camptothecin viability":-0.278,"Call":"inactive"}
{"Target gene":"UHRF1 (ubiquitin like with PHD and ring finger domains 1)","reagent no.":2,"log2 vehicle/camptothecin viability":-0.103,"Call":"inactive"}
{"Target gene":"UHRF1 (ubiquitin like with PHD and ring finger domains 1)","reagent no.":3,"log2 vehicle/camptothecin viability":-0.237,"Call":"inactive"}
{"Target gene":"UHRF1 (ubiquitin like with PHD and ring finger domains 1)","reagent no.":4,"log2 vehicle/camptothecin viability":0.0439,"Call":"inactive"}
{"Target gene":"GKAP1 (G kinase anchoring protein 1)","reagent no.":1,"log2 vehicle/camptothecin viability":-0.178,"Call":"inactive"}

The list goes on:
{"Target gene": "LRRC17 (leucine rich repeat containing 17)", "reagent no.": 1, "log2 vehicle/camptothecin viability": -0.303, "Call": "inactive"}
{"Target gene": "LRRC17 (leucine rich repeat containing 17)", "reagent no.": 2, "log2 vehicle/camptothecin viability": -0.0685, "Call": "inactive"}
{"Target gene": "LRRC17 (leucine rich repeat containing 17)", "reagent no.": 3, "log2 vehicle/camptothecin viability": -0.101, "Call": "inactive"}
{"Target gene": "LRRC17 (leucine rich repeat containing 17)", "reagent no.": 4, "log2 vehicle/camptothecin viability": -0.268, "Call": "inactive"}
{"Target gene": "FZD1 (frizzled class receptor 1)", "reagent no.": 1, "log2 vehicle/camptothecin viability": -0.399, "Call": "inactive"}
{"Target gene": "FZD1 (frizzled class receptor 1)", "reagent no.": 2, "log2 vehicle/camptothecin viability": -0.257, "Call": "inactive"}
{"Target gene": "FZD1 (frizzled class receptor 1)", "reagent no.": 3, "log2 vehicle/camptothecin viability": -0.436, "Call": "inactive"}
{"Target gene": "FZD1 (frizzled class receptor 1)", "reagent no.": 4, "log2 vehicle/camptothecin viability": -0.0198, "Call": "inactive"}
{"Target gene": "DGKB (diacylglycerol kinase beta)", "reagent no.": 1, "log2 vehicle/camptothecin viability": 0.448, "Call": "inactive"}
{"Target gene": "DGKB (diacylglycerol kinase beta)", "reagent no.": 2, "log2 vehicle/camptothecin viability": 0.802, "Call": "inactive"}
{"Target gene": "DGKB (diacylglycerol kinase beta)", "reagent no.": 3, "log2 vehicle/camptothecin viability": 0.344, "Call": "inactive"}
{"Target gene": "DGKB (diacylglycerol kinase beta)", "reagent no.": 4, "log2 vehicle/camptothecin viability": -0.0518, "Call": "inactive"}
{"Target gene": "KCNS1", "reagent no.": 1, "log2 vehicle/camptothecin viability": -0.199, "Call": "inactive"}
{"Target gene": "KCNS1", "reagent no.": 2, "log2 vehicle/camptothecin viability": -0.406, "Call": "inactive"}
{"Target gene": "KCNS1", "reagent no.": 3, "log2 vehicle/camptothecin viability": 0.0518, "Call": "inactive"}
{"Target gene": "KCNS1", "reagent no.": 4, "log2 vehicle/camptothecin viability": -0.111, "Call": "inactive"}
{"Target gene": "AHRR (aryl hydrocarbon receptor repressor)", "reagent no.": 1, "log2 vehicle/camptothecin viability": -0.457, "Call": "inactive"}
{"Target gene": "AHRR (aryl hydrocarbon receptor repressor)", "reagent no.": 2, "log2 vehicle/camptothecin viability": -0.398, "Call": "inactive"}
{"Target gene": "AHRR (aryl hydrocarbon receptor repressor)", "reagent no.": 3, "log2 vehicle/camptothecin viability": 0.28, "Call": "inactive"}
{"Target gene": "AHRR (aryl hydrocarbon receptor repressor)", "reagent no.": 4, "log2 vehicle/camptothecin viability": -0.00805, "Call": "inactive"}
{"Target gene": "ADGRA1 (adhesion G protein-coupled receptor A1)", "reagent no.": 1, "log2 vehicle/camptothecin viability": -0.0465, "Call": "inactive"}
{"Target gene": "ADGRA1 (adhesion G protein-coupled receptor A1)", "reagent no.": 2, "log2 vehicle/camptothecin viability": -0.388, "Call": "inactive"}
{"Target gene": "ADGRA1 (adhesion G protein-coupled receptor A1)", "reagent no.": 3, "log2 vehicle/camptothecin viability": -0.303, "Call": "inactive"}
{"Target gene": "ADGRA1 (adhesion G protein-coupled receptor A1)", "reagent no.": 4, "log2 vehicle/camptothecin viability": -0.251, "Call": "inactive"}
